Among the data in PubChem BioAssay AID328 (DTP/NCI, 2004) are T/C and survivor count values, retold here.

The subject of the experiment is BDF1 mice, P388 leukemia ip, median survival T/C. Nature of the experiment: NCI In Vivo Anticancer Drug Screen. Data for tumor model P388 Leukemia (intraperitoneal) in B6D2F1 (BDF1) mice. As to conditions: T/C endpoint: median survival time, higher T/C = longer survival. An outline of the steps: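 T/C = treated-group survival ÷ vehicle-control survival; tumour transplanted into mice before dosing.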

Where [1] appears, read: dose: 25.0 mg/kg/injection, schedule: Q01DX009 (ip), vehicle: saline with Tween-80.
[2] abbreviates: dose: 50.0 mg/kg/injection, schedule: Q01DX009 (ip), vehicle: saline with Tween-80.
The mark [3] stands for this setting: dose: 100.0 mg/kg/injection, schedule: Q01DX009 (ip), vehicle: saline with Tween-80.
[4] abbreviates: dose: 200.0 mg/kg/injection, schedule: Q01DX009 (ip), vehicle: saline with Tween-80.
Where [5] appears, read: dose: 25.0 mg/kg/injection, schedule: Q01DX009 (ip), vehicle: Klucel (hydroxypropylcellulose) (HPC).
Where [6] appears, read: dose: 50.0 mg/kg/injection, schedule: Q01DX009 (ip), vehicle: Klucel (hydroxypropylcellulose) (HPC).
Setting [7] is: dose: 100.0 mg/kg/injection, schedule: Q01DX009 (ip), vehicle: Klucel (hydroxypropylcellulose) (HPC).
[8] abbreviates: dose: 100.0 mg/kg/injection, schedule: Q04DX003 (ip), vehicle: Klucel (hydroxypropylcellulose) (HPC).
Where [9] appears, read: dose: 200.0 mg/kg/injection, schedule: Q04DX003 (ip), vehicle: Klucel (hydroxypropylcellulose) (HPC).
Setting [10] is: dose: 400.0 mg/kg/injection, schedule: Q04DX003 (ip), vehicle: Klucel (hydroxypropylcellulose) (HPC).
Setting [11] is: dose: 100.0 mg/kg/injection, schedule: Q04DX003 (ip), vehicle: saline with Tween-80.
Setting [12] is: dose: 200.0 mg/kg/injection, schedule: Q01DX009 (ip), vehicle: Klucel (hydroxypropylcellulose) (HPC).
[13] abbreviates: dose: 400.0 mg/kg/injection, schedule: Q01DX009 (ip), vehicle: Klucel (hydroxypropylcellulose) (HPC).

The list is a part of this screen's results and no random one: its compounds were picked by chemical class. Other doses and runs of a compound may be missing. T/C is the treated group as % of the vehicle group. Some doses have a count of surviving animals in place of a T/C: the source holds a T/C of zero for them, seemingly a mark for toxic or unscored doses. Some survivor counts are full or nearly so, which does not show that the dose was tolerated: survival well below the control is almost never listed, so the zero probably covers shortened survival too. Counts of survivors are from the toxicity check (mostly the fifth day) where no day follows; animals may have died later. Schedule codes are those of the source, read here as Q, the interval in days (D) or hours (H), X, the number of doses. Some complexes appear as separate parts, the way the source draws them; their charges need not add up. For survival time, this PubChem deposit counts one and a half times the control or more as active, and values a quarter to a half above the control carry no call in these data; other NCI protocols may use other cut-offs. Some T/C values are followed by the survivors on the day toxicity was checked, most often the fifth; without a count or a note in brackets, all were alive then. Some doses were run more than once; the values are given in rising order. Some T/C values are marked as having no survivor count here; that says nothing about deaths at the dose.

Regarding `Fc1ccc(N(CCCl)CCCl)cc1`, the T/C (dose: 100.0 mg/kg/injection, schedule: Q04DX002 (ip), vehicle: saline with Tween-80) is 127 % of control [5 of 6 alive]; the T/C (dose: 200.0 mg/kg/injection, schedule: Q04DX002 (ip), vehicle: saline with Tween-80) is 142 % of control; the T/C (dose: 266.0 mg/kg/injection, schedule: Q04DX002 (ip), vehicle: saline with Tween-80) was 152 % of control; the T/C (dose: 400.0 mg/kg/injection, schedule: Q04DX002 (ip), vehicle: saline with Tween-80) is 144 and 161 % of control [5 of 6 alive]. The survivor count (dose: 600.0 mg/kg/injection, schedule: Q04DX002 (ip), vehicle: saline with Tween-80) is on record as 3 of 6.

For the molecule `O=C(O)/C=C\c1ccccc1N(CCCl)CCCl`, the T/C by setting is: (dose: 5.2 mg/kg/injection, schedule: Q01DX009 (ip), vehicle: saline) 109 % of control; (dose: 7.9 mg/kg/injection, schedule: Q01DX009 (ip), vehicle: saline) 176 % of control; (dose: 12.0 mg/kg/injection, schedule: Q01DX009 (ip), vehicle: saline) 190 % of control; (dose: 12.5 mg/kg/injection, schedule: Q01DX009 (ip), vehicle: saline) 127 % of control; (dose: 18.75 mg/kg/injection, schedule: Q01DX009 (ip), vehicle: saline) 145, 225, 230 % of control; (dose: 28.0 mg/kg/injection, schedule: Q01DX009 (ip), vehicle: saline) 160 % of control. For the same molecule, the T/C runs as follows: (dose: 28.13 mg/kg/injection, schedule: Q01DX009 (ip), vehicle: saline) 177 % of control; (dose: 33.0 mg/kg/injection, schedule: Q04DX003 (ip), vehicle: saline) 175 % of control; (dose: 37.5 mg/kg/injection, schedule: Q01DX009 (ip), vehicle: saline) 125 % of control; (dose: 50.0 mg/kg/injection, schedule: Q04DX003 (ip), vehicle: alcohol) 231 % of control; (dose: 50.0 mg/kg/injection, schedule: Q04DX003 (ip), vehicle: saline) 220 % of control; (dose: 75.0 mg/kg/injection, schedule: Q04DX003 (ip), vehicle: saline) 245 % of control. Further, the survivor count by setting is: (dose: 75.0 mg/kg/injection, schedule: Q01DX009 (ip), vehicle: saline) 3 of 6; (dose: 100.0 mg/kg/injection, schedule: Q04DX003 (ip), vehicle: alcohol) 6 of 6; (dose: 200.0 mg/kg/injection, schedule: Q04DX003 (ip), vehicle: alcohol) 1 of 6.

With `CN(C)C(=O)Oc1ccc(/C=N/NC(N)=S)nc1`, the T/C is 133 % of control under setting [1], 142 % of control under setting [2] and 151 % of control under setting [3]. Besides, the survivor count under setting [4] was 4 of 6.

Regarding `NNS(=O)(=O)c1ccc(N(CCCl)CCCl)cc1`, under setting [3], the T/C is 90 % of control. Besides, the survivor count under setting [4] is recorded as 6 of 6 and the survivor count (dose: 400.0 mg/kg/injection, schedule: Q01DX009 (ip), vehicle: saline with Tween-80) was 6 of 6.

Consider `CCc1nc(C)cn1P(=O)(Oc1ccccc1)OC1CC(C)(C)N(O)C(C)(C)C1` (stereo not given), for which the T/C is, setting by setting: (dose: 50.0 mg/kg/injection, schedule: Q01DX009 (ip), vehicle: suspension in saline) 100 % of control; (dose: 100.0 mg/kg/injection, schedule: Q01DX009 (ip), vehicle: suspension in saline) 100 % of control; (dose: 200.0 mg/kg/injection, schedule: Q01DX009 (ip), vehicle: suspension in saline) 120 % of control.

Regarding `C1C[N-]1.C1C[N-]1.C1C[N-]1.[Cl][Rh]([Cl])[Cl]`, the T/C by setting is: under setting [5], 115 % of control; under setting [1], 109 % of control; under setting [6], 100 % of control [5 of 6 alive]; under setting [2], 100 % of control; under setting [7], 120 % of control; under setting [3], 109 % of control. Besides, under setting [8], the T/C was 95 % of control [5 of 6 alive]. The survivor count is recorded as 3 of 6 under setting [9] and 3 of 6 under setting [10].

Consider `O=[N+]([O-])c1ccc2cn([N+](=O)[O-])nc2c1`, for which the survivor count under setting [11] is 1 of 6; the survivor count (dose: 200.0 mg/kg/injection, schedule: Q04DX003 (ip), vehicle: saline with Tween-80) was 0 of 6; the survivor count (dose: 400.0 mg/kg/injection, schedule: Q04DX003 (ip), vehicle: saline with Tween-80) is on record as 0 of 6.

As for `C1C[N-]1.C1C[N-]1.C1C[N-]1.[Br][Rh]([Br])[Br]`, the T/C is, setting by setting: under setting [6], 105 % of control; under setting [7], 105 % of control; under setting [8], 100 % of control; under setting [12], 105 % of control; under setting [9], 105 % of control [5 of 6 alive]; under setting [13], 86 % of control. Moreover, the T/C under setting [10] is 100 % of control. The survivor count was 6 of 6 under setting [7] and 5 of 6 under setting [12].

For `NC(Cc1ccc(N(CCF)CCCl)cc1)C(=O)O` (stereo not given), the T/C was 138 % of control (dose: 3.12 mg/kg/injection, schedule: Q01DX009 (ip), vehicle: Klucel (hydroxypropylcellulose) (HPC)); 169 % of control (dose: 6.25 mg/kg/injection, schedule: Q01DX009 (ip), vehicle: Klucel (hydroxypropylcellulose) (HPC)); 203 and 230 % of control (dose: 12.5 mg/kg/injection, schedule: Q01DX009 (ip), vehicle: Klucel (hydroxypropylcellulose) (HPC)); 230 % of control under setting [5]. Also, the survivor count reads like this: under setting [7], 4 of 6; under setting [12], 0 of 6; under setting [13], 0 of 6.

As to `N/C(=N\[N+](=O)[O-])N(CCO[N+](=O)[O-])N=O`, the T/C was 159 % of control [survivor count not shown] (dose: 12.0 mg/kg/injection, schedule: Q04DX003 (ip), vehicle: saline); 150 % of control [survivor count not shown] (dose: 19.0 mg/kg/injection, schedule: Q04DX003 (ip), vehicle: saline); 140 % of control [survivor count not shown] (dose: 29.0 mg/kg/injection, schedule: Q04DX003 (ip), vehicle: saline with Tween-80); 150 % of control [survivor count not shown] (dose: 45.0 mg/kg/injection, schedule: Q04DX003 (ip), vehicle: saline with Tween-80); 154 % of control [survivor count not shown] (dose: 66.0 mg/kg/injection, schedule: Q04DX003 (ip), vehicle: saline with Tween-80); 154 % of control [survivor count not shown] under setting [11]. Under “dose: 150.0 mg/kg/injection, schedule: Q04DX003 (ip), vehicle: saline with Tween-80”, the T/C is 154 % of control [survivor count not shown].
